In PubChem BioAssay AID743255 (National Center for Advancing Translational Sciences (NCATS), 2014):
Screen size: about 390,000 compounds; about 910 (0.23%) were called active. The shares of active, inactive and inconclusive entries below differ from those in the screen. Calls come from the whole dose curve; as a rule, active = well fitted inhibition curve with a large enough effect; inconclusive = small, poorly fitted or top-dose-only effect; inactive = no such curve, though single readings can be large or run the other way. Potencies of inconclusive entries are doubtful fits and often do not repeat.
% is set by controls: 0 for no effect and ±100 for the full control effect; potency is the fitted concentration of half-maximal effect.
Note: nearly all actives have a fitted effect of over 60% in size.

By UniProt entry, the sequences of proteins in these tests, tags left out. Where a name states a change or a piece, a line headed by the entry shows the natural chain unless it says otherwise.
UniProt O94782: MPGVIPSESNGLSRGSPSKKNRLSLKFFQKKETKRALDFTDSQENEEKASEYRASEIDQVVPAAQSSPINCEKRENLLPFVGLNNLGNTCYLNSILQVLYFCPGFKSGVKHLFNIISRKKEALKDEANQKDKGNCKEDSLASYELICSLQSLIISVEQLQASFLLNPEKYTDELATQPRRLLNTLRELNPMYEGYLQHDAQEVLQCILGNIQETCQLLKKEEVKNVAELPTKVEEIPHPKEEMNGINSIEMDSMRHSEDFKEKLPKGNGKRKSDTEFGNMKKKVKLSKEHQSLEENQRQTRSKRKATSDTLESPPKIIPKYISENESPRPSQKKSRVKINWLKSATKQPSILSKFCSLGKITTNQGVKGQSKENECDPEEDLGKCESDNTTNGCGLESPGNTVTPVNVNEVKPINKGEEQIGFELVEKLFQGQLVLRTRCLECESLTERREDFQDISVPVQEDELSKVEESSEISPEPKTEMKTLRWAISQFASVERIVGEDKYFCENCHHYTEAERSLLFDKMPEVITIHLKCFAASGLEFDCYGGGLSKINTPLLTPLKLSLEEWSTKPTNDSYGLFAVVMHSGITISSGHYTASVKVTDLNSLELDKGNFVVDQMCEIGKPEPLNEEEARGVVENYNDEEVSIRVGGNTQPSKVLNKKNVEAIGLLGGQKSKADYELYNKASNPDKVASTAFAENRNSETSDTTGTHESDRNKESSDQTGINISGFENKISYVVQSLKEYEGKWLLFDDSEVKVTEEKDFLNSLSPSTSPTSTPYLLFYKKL

These molecules were tested against Ubiquitin carboxyl-terminal hydrolase 1 (Homo sapiens) (UniProt O94782) (assay: Inhibitors of USP1/UAF1: Primary Screen). Settings: recombinant USP1/UAF1, Ub-Rhodamine cleavage fluorescence; activity change, negative = inhibition: at 57.1 µM (top of the series).
How it was run: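 USP1/UAF1 complex (1 nM) preincubated 15 min at room temperature with compound, then Ub-Rho substrate (150 nM final) added. Kinetic fluorescence at 480/540 nm over 6 reads at 60 s intervals; 50 mM HEPES pH 7.8, 0.5 mM EDTA, 0.1 mg/ml BSA, 1 mM TCEP, 0.01% Tween-20.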
CN1CCN(NC(=O)c2cc(-c3ccc(Br)s3)nc3ccccc23)CC1 was tested, and the Potency was inconclusive: 50.1 µM [inhibitor, single point].
With COc1ccc(NC(=O)c2ccc3c(c2)OCCO3)cc1OC the Potency was inconclusive: 7.94 µM [inhibitor, full curve, poor fit].
In the case of CC1Sc2ccc(S(=O)(=O)N3CCC(C(=O)Nc4ccc(Cl)cc4)CC3)cc2NC1=O (centres undefined), the Potency is reported as inconclusive: 44.7 µM [inhibitor, partial curve, poor fit].
With CCC/C(C#CCCN1C(=O)c2ccccc2C1=O)=C1/c2ccccc2C(=O)N1c1ccccc1 the Potency was inconclusive: 35.5 µM [inhibitor, partial curve].
In the case of COc1ccccc1N(C(=O)CNC(=O)c1ccco1)C(C(=O)NC1CCCC1)c1ccco1 (centres undefined), the Potency is reported as inconclusive: 10 µM [inhibitor, partial curve, poor fit].
With COc1ccc(C2CC(=O)Oc3c(C(CCN4CCCC(C)C4)c4ccc(N(C)C)cc4)c(OC)cc(OC)c32)cc1 (centres undefined) the Potency was inconclusive: 50.1 µM [inhibitor, partial curve, poor fit].
With O=C(Nc1cccc(C(=O)OCc2cc(=O)n3c4c(sc3n2)CCCC4)c1)c1ccccc1 the Potency was inconclusive: 11.2 µM [inhibitor, partial curve, poor fit].
C=Cc1ccc(CSc2nc(-c3ccc(C)cc3)nc3c2Cc2c(CO)cnc(C)c2O3)cc1 was tested, and the Potency was “inactive”.
In the case of CC(C)NC(=S)NC(=O)c1ccc(-c2ccccc2)cc1, the Potency is reported as “inactive”.
With Cc1csc2nc(CNC(=O)CCC(=O)O)cn12 the Potency was inconclusive: 8.91 µM [inhibitor, partial curve, poor fit].
For CCOC(=O)C1=C(CSc2nc3ccccc3s2)NC(=O)NC1c1cccc([N+](=O)[O-])c1 (centres undefined), the Potency was inconclusive: 0.447 µM [inhibitor, full curve, poor fit].
With Cc1cccc(-n2ncc3c(N4CCN(c5ccccc5)CC4)ncnc32)c1 the Potency was inconclusive: 4.47 µM [inhibitor, full curve].
In the case of Cc1cc(C)n2nc(SCC(=O)N3CCC(C(=O)O)CC3)nc2n1, the Potency is reported as inconclusive: 7.08 µM [inhibitor, full curve, poor fit].
For Cc1nc(-c2ccc(S(=O)(=O)NCc3ccc(N(C)C)cc3)cc2)co1, the Potency was “inactive”.
With CCOc1ccc(C(=O)O/N=C(\N)c2ccccn2)cc1 the Potency was “inactive”.
With CSc1nnc2c3ccccc3n(Cc3ccccc3)c2n1 the Potency was “inactive”.
O=C(NCc1ccccc1)c1ccc(-c2ccccc2C(F)(F)F)o1 was tested, and the Potency was inconclusive: 0.794 µM [inhibitor, full curve].
In the case of CCN(CC(=O)NCc1ccc(Cl)cc1)C(=O)CSCC(=O)Nc1ccc(OC)cc1, the Potency is reported as inconclusive: 6.31 µM [inhibitor, full curve].
In the case of COc1cc2ccccc2cc1C(=O)N1CCN(c2nc3ccc(F)cc3s2)CC1, the Potency is reported as “inactive”.
For CSc1c[n+]2c(n1C)CCC2, the Potency was “inactive”.
With Cc1ccc(/C(O)=C/c2nc3cc(C)ccc3oc2=O)cc1 the Potency was inconclusive: 1 µM [inhibitor, full curve, poor fit].
For CCO[C@@H]1OC(C(=O)N2CCN(Cc3ccccc3)CC2)=C[C@H](c2csc3ccccc23)[C@H]1CCCO, the Potency was inconclusive: 50.1 µM [inhibitor, partial curve, poor fit].
N#CC1(NC(=O)COC(=O)c2nc(Cl)ccc2Cl)CCCCC1 was tested, and the Potency was inconclusive: 10 µM [inhibitor, full curve, poor fit].
In the case of CCCCn1c(O)c(/C=C/C=C/C=Nc2ccccc2)sc1=S, the Potency is reported as inconclusive: 25.1 µM [inhibitor, partial curve].
In the case of CCN(C(=O)COC(=O)C(c1ccccc1)c1ccccc1)c1c(N)n(Cc2ccccc2)c(=O)[nH]c1=O, the Potency is reported as “inactive”.
With N#Cc1ccc(-c2csc(NC(=O)/C=C/c3cccs3)n2)cc1 the Potency was “inactive”.
In the case of COc1ccc(-n2cnnc2SCC(=O)NC2CCCc3ccccc32)cc1 (centres undefined), the activity change, negative = inhibition is reported as inconclusive: 5.15% [inhibitor].
For Cc1cc(C)nc(NN2C(=O)/C(=C/c3ccc(O)cc3)SC2=S)n1, the Potency was inconclusive: 31.6 µM [inhibitor, partial curve].
In the case of COC(=O)c1c(NC(=O)CC2Nc3cc(C)c(C)cc3NC2=O)sc(C)c1C (centres undefined), the Potency is reported as inconclusive: 31.6 µM [inhibitor, partial curve].
In the case of Cc1ccc(CN(Cc2ccco2)C(=O)COc2ccc(Cl)cc2)o1, the Potency is reported as inconclusive: 35.5 µM [inhibitor, partial curve].
With CCOC(=O)c1cc(-c2ccc(F)cc2)n(CCC(=O)NCCc2ccc(C)cc2)c1C the Potency was inconclusive: 126 µM [inhibitor, partial curve, poor fit].
With Cc1cc(NC(=O)c2cc3cccc([N+](=O)[O-])c3[nH]2)ccc1F the Potency was “inactive”.
COc1cccc(C#Cc2c(C=O)n(C)c3ccccc23)c1 was tested, and the Potency was inconclusive: 39.8 µM [inhibitor, partial curve, poor fit].
Cc1ccc(CNC(=O)c2nnn(CC(=O)Nc3cc(C)ccc3C)c2N)cc1 was tested, and the Potency was inconclusive: 7.08 µM [inhibitor, partial curve].
In the case of O=C(CN1C(=O)COc2ccc(S(=O)(=O)N3CCCCC3)cc21)NCc1ccc(Cl)cc1, the Potency is reported as inconclusive: 0.794 µM [inhibitor, full curve, poor fit].
For Cc1ccc(-c2csc(N(CCO)CCCn3c(C(F)(F)F)nc4cc(C(F)(F)F)ccc43)n2)cc1, the Potency was inconclusive: 44.7 µM [inhibitor, partial curve, poor fit].
For COc1cc2ccc(C(C)=NOC(C)=O)cc2cc1OC, the Potency was inconclusive: 31.6 µM [inhibitor, partial curve].
With CCCCCCCN1CCC(=O)N([C@H](CO)c2ccccc2)CC1 the Potency was inconclusive: 6.31 µM [inhibitor, partial curve].
For O=C(C1=C(O)C(=O)N(c2nccs2)C1c1ccccc1)c1cc2ccccc2o1 (centres undefined), the Potency was inconclusive: 0.447 µM [inhibitor, full curve, poor fit].
In the case of Cc1ccc(NC(=S)N2C3CCCC2CC(NC(=O)C2CC2)C3)cc1C (centres undefined), the Potency is reported as inconclusive: 4.47 µM [inhibitor, partial curve].
Cc1ccc(Cc2cc(C)n[nH]c2=O)cc1 was tested, and the Potency was inconclusive: 50.1 µM [inhibitor, partial curve, poor fit].
Cc1cc(C)cc(NC(=O)Cn2nnc(-c3nc(-c4ccncc4)no3)c2N)c1 was tested, and the Potency was inconclusive: 39.8 µM [inhibitor, partial curve].
CCCCC(=O)Nc1nc2ccc3nc(C)sc3c2s1 was tested, and the Potency was inconclusive: 44.7 µM [inhibitor, partial curve, poor fit].
For COc1ccc(-n2nnnc2C2CCN(S(=O)(=O)c3ccc(C(C)(C)C)cc3)CC2)cc1, the Potency was “inactive”.
In the case of Cc1cccc(NC(=O)CS(=O)(=O)c2cn(C)c3ccccc23)c1, the Potency is reported as inconclusive: 35.5 µM [inhibitor, single point].
With O=C(COCc1cc(-c2ccc3c(c2)OCO3)on1)N1CCN(c2ccccc2)CC1 the Potency was inconclusive: 0.891 µM [inhibitor, full curve].
For COc1ccccc1NC(=O)C1=C(C)Nc2nc(SCc3ccccc3F)nn2C1c1cccs1 (centres undefined), the Potency was “inactive”.
For CCOc1ccc(N2C(=O)/C(=C/c3cc(OC)c(OC)c(OC)c3)N(CC(=O)OC)C2=S)cc1, the Potency was inconclusive: 20 µM [inhibitor, partial curve, poor fit].
COc1ccc(S(=O)(=O)Nc2ccc3c(c2)CCCN3S(=O)(=O)c2ccc(C)cc2)cc1F was tested, and the Potency was inconclusive: 39.8 µM [inhibitor, single point].
With Nc1c(C(=O)Nc2ccc(F)c(F)c2)sc2nc(-c3ccncc3)ccc12 the Potency was inconclusive: 31.6 µM [inhibitor, partial curve, poor fit].
Fc1ccccc1CN(CCN1CCOCC1)C(=S)Nc1ccccc1Cl was tested, and the Potency was inconclusive: 3.98 µM [inhibitor, full curve, poor fit].
With COc1ccccc1C(=O)NNC(=O)c1ccc(Br)o1 the Potency was “inactive”.
With O=C(Nc1ccccc1O)c1csc2c1CCCC2 the Potency was inconclusive: 0.355 µM [inhibitor, full curve].
With COC(=O)c1c(C)nn(-c2ccc(F)cc2)c1-n1cccc1 the Potency was “inactive”.
With CCN(CC)c1nc(OCCNC(=O)Nc2ccccc2)nc(N(CC)CC)n1 the Potency was inconclusive: 50.1 µM [inhibitor, partial curve, poor fit].
For Cc1ccc(NC(=O)c2ccc(NC(=O)N3CCSc4ncccc43)cc2)c(C)c1, the Potency was inconclusive: 0.1 µM [inhibitor, full curve, poor fit].
For NC(=S)N/N=C/c1coc2ccc(O)cc2c1=O, the Potency was “inactive”.
In the case of C=CCOc1ccc(/C=C/C(=O)OCC(=O)NNC(=O)c2ccccc2F)cc1, the Potency is reported as inconclusive: 6.31 µM [inhibitor, partial curve, poor fit].
With COc1ccc(COc2cc(-c3cccc(OC)c3)nc3ccc(NC(=O)C(C)C)cc23)cc1 the Potency was inconclusive: 39.8 µM [inhibitor, single point].
In the case of CCN(C(=O)COC(=O)CCc1ccccc1)c1ccccc1, the Potency is reported as inconclusive: 5.01 µM [inhibitor, full curve, poor fit].
With COc1ccc(-c2ccc(N(C)C)cc2)cc1[C@H]1[C@H]2C=CC[C@@H](C)[C@@H]2C(=O)N1Cc1ccccc1 the Potency was inconclusive: 112 µM [inhibitor, partial curve, poor fit].
COc1cc(-c2nc(CCNC(=O)c3ccco3)cs2)cc(OC)c1OC was tested, and the Potency was “inactive”.
In the case of O=C(O)CC(C(=O)O)n1nc(-c2ccccc2)cc1-c1ccccc1 (centres undefined), the Potency is reported as “inactive”.
In the case of COC(=O)CSc1ccc2nnc(-c3ccc(OC)c(OC)c3)n2n1, the Potency is reported as inconclusive: 35.5 µM [inhibitor, partial curve].
